No constants are given. Whether binding was seen depends on the method and setting. Binding seen in cells or lysates may run through a third protein. These calls come from enrichment with a bait or labelling near it, and not all partners need be listed.
Biological target: miniTurbo-paxillin (paxillin fused to a small and fast promiscuous biotin ligase) (human) (UniProt P49023)
Experiment: proximity labelling

Protein sequences, listed by entry. Tags and fused reporters are not part of them.
UniProt P49023: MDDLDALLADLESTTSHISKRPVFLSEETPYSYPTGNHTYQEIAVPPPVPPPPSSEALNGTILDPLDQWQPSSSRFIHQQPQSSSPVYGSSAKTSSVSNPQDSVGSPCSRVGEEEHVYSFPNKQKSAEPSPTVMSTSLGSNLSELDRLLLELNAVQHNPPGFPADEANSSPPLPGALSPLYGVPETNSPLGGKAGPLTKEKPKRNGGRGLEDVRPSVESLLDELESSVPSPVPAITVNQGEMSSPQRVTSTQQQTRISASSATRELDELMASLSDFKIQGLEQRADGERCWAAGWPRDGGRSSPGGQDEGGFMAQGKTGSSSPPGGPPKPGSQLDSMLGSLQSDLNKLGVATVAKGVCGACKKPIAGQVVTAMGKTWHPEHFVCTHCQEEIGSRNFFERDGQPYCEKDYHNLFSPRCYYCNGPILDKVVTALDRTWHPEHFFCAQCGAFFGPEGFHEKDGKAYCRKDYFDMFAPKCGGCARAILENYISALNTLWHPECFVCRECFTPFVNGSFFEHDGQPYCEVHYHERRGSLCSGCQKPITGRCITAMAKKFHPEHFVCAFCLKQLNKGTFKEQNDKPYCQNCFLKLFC
UniProt Q14155: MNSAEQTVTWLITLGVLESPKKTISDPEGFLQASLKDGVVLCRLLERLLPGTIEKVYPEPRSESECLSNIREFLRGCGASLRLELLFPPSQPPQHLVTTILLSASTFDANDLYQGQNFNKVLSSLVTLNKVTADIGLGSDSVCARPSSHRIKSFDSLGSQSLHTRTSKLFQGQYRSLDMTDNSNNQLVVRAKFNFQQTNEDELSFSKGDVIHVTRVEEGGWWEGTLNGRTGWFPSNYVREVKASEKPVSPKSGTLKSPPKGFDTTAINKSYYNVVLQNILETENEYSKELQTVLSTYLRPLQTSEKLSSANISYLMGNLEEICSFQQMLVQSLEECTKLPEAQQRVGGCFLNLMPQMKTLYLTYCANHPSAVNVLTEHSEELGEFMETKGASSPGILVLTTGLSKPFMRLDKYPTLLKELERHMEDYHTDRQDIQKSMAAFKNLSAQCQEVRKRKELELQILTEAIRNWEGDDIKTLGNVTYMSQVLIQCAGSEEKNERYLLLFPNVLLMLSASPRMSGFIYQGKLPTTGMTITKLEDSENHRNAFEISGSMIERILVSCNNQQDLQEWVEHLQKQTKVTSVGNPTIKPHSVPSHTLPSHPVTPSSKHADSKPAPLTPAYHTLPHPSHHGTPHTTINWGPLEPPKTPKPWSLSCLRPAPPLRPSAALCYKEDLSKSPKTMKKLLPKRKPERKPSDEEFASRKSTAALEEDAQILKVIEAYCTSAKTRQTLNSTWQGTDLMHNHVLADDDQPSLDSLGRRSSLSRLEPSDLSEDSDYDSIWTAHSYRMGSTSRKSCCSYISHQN

binding: binds
Substance: ARHGEF7/β-PIX (from UniProt Q14155 1-803)
